Test results: patent US20230167118A1, “DEGRADATION OF BRUTON'S TYROSINE KINASE (BTK) BY CONJUGATION OF BTK INIDBITORS WITH E3 LIGASE LIGAND AND METHODS OF USE” (BEIGENE, LTD., priority 2020, published 2023)
The match of structure and compound is tentative.

Amino acid sequences for entries named in this document (tags omitted).
UniProt Q06187, whole entry: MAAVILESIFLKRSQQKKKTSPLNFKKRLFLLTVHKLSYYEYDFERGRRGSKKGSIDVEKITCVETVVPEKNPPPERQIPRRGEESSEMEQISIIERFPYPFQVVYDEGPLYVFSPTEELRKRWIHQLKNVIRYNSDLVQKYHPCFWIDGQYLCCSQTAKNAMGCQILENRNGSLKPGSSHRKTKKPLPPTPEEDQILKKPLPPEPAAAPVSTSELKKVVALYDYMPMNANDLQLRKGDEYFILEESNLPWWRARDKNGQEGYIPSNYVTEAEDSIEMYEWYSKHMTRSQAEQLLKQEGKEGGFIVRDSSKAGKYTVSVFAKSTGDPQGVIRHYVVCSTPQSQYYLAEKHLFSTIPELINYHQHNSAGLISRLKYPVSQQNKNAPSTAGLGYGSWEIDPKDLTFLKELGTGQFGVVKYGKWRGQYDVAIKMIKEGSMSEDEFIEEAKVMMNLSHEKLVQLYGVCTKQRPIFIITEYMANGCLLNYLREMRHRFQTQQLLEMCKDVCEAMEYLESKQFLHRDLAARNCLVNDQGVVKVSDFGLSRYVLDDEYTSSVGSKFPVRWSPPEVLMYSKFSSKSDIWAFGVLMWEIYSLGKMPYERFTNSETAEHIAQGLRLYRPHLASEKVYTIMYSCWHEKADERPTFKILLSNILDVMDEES

Legend:
HEK-293 cells = assay: HEK-293 Cytotoxicity Assay (CellTiter-Glo); details: 72 h incubation, CellTiter-Glo luminescence
Experimental: HEK-293 Cytotoxicity Assay
HEK-293 cells are treated with compounds diluted in 0.2% DMSO, dilution is done according to the following protocol: (1) make 500× stock solution in DMSO from 5 mM by 4-fold dilution, total 8 doses were included; (2) make 2× solution in cell culture medium by transferring 0.5 ul 500× stock solution into 125 ul medium; (3) 50 ul of 2× solution is added to cells and incubate for 72 h.
Add 25 μl of the CellTiter-Glo®Reagent [I (Promega)—Cat No. G7572] to each well in the 96-well plate. Mix contents for 2 minutes on an orbital shaker to induce cell lysis. Allow the plate to incubate at room temperature for 10 minutes to stabilize luminescent signal. Record luminescence on BMG PheraStar with luminescence protocol.
The IC50 value of a compound can be obtained by fitting the following equation. Y=Bottom+(TOP−Bottom)/(1+((IC50/X)^hillslope)) Wherein, X and Y are known values, and IC50, Hillslope, Top and Bottom are the parameters obtained by fitting with software. Y is the inhibition percentage (calculated from the equation), X is the concentration of the compound; IC50 is the concentration of the compound when the 50% inhibition is reached. The smaller the IC50 value is, the stronger the inhibitory ability of the compound is. […]

BTK = BTK (Homo sapiens, UniProt Q06187); assay: Cell Degradation: BTK degradation in TMD-8 cells, HTRF assay; details: 6 h treatment, IC50 (DC50) of BTK degradation

- DC50 (BTK): 0.36 nM
Structure (SMILES): Cc1cc(-c2ncnc3[nH]c(-c4ccc(N5CCN(CC6CCN(c7ccc(N8CCC(=O)NC8=O)c(C)c7)CC6)CC5)cn4)cc23)ccc1[C@@H](C)NC(=O)c1nc(C(C)(C)C)no1
- IC50 (HEK-293 cells): > 10000 nM
